From PMC3091301

Chains of the proteins cited; added tags and fusions are not shown. Chains listed by the source or under a name are the forms on record and can include a tag or linker.
eZNF9-TAP (Homo sapiens), one chain, as listed by the source: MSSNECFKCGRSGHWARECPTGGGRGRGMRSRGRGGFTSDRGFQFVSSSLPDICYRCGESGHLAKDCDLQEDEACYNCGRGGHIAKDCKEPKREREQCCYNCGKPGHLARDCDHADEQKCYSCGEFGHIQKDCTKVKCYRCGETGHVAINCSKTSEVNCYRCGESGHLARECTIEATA

Legend:
[1] = molecular target: T1, eGis2-TAP (Saccharomyces cerevisiae (BY4741 background)) (UniProt P53849); experiment: pull-down; details: Biotin-RNA pull-down on streptavidin beads with immunoblot read-out, protein in an extract, residues 1-153, protein details: C-terminal TAP
T1 sequence (looked up): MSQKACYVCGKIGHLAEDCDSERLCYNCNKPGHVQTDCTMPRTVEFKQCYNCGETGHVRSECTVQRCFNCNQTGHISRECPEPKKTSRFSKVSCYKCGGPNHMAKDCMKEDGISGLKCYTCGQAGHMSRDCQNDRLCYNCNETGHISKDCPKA

eZNF9-TAP (Homo sapiens) [2] = experiment: pull-down; details: Biotin-RNA pull-down on streptavidin beads with immunoblot read-out, protein in a lysate after overexpression, residues 1-178, protein details: TAP (pBG1805)
[3] = molecular target: T1, eGis2-TAP (Saccharomyces cerevisiae (BY4741 background)); experiment: competition with a labelled probe; details: protein in an extract, residues 1-153, protein details: C-terminal TAP
eZNF9-TAP (Homo sapiens) [4] = experiment: competition with a labelled probe; details: 10-fold excess vs biotin MYH4 RNA, ZNF9 preparation not specified; protein in a lysate after overexpression; residues 1-178; protein details: TAP (pBG1805); label: biotin (unlabeled as competitor)
pZNF9-His (Homo sapiens) = experiment: pull-down; details: Biotin-RNA pull-down on streptavidin beads with immunoblot read-out, recombinant protein, residues 1-178, protein details: His6 (pDEST-17)
[5] = molecular target: T2, pGis2-His (Saccharomyces cerevisiae) (UniProt P53849); experiment: pull-down; details: Biotin-RNA pull-down on streptavidin beads with immunoblot read-out, recombinant protein, residues 1-153, protein details: His6 (pDEST-17)
T2 sequence (looked up): T1 sequence (looked up)

[6] = 10-fold excess vs biotin (GAUGAA)5 RNA, moderate, label: none (competitor), single-stranded DNA
[7] = label: biotin (unlabeled as competitor)
[8] = 10-fold excess vs biotin (GAUGAA)5, weak to moderate, label: biotin (unlabeled as competitor)
[9] = almost abrogated, label: biotin (unlabeled as competitor)

## GACGACGACGACGACGACGACGACGACGAC [(GACGAC)5]
[1]; Gis2 preparation not specified, label: biotin
  binding result: binds more weakly
eZNF9-TAP (Homo sapiens) [2]; ZNF9 preparation not specified, label: biotin
  binding result: binds more weakly

## GATGAAGATGAAGATGAAGATGAAGATGAA [(GATGAA)5 DNA]
[3]; [6]
  binding result: binds more weakly

## GATGTTGATGTTGATGTTGATGTTGATGTT [(GATGTT)5 DNA]
[3]; [6]
  binding result: binds more weakly

## GAUGAAGAUGAAGAUGAAGAUGAAGAUGAA [(GAUGAA)5]
[3]; 10-fold excess vs biotin (GAUGAA)5, strong, Gis2 preparation not specified, label: biotin (unlabeled as competitor)
  binding result: binds
eZNF9-TAP (Homo sapiens) [4]
  binding result: binds
[1]; [7]
  binding result: binds
pZNF9-His (Homo sapiens); [7]
  binding result: binds
[5]; [7]
  binding result: binds
eZNF9-TAP (Homo sapiens) [2]; [7]
  binding result: binds

## GAUGCUGAUGCUGAUGCUGAUGCUGAUGCU [(GAUGCU)5]
[3]; [8]
  binding result: binds more weakly
[1]; [9]
  binding result: binds more weakly
pZNF9-His (Homo sapiens); [9]
  binding result: binds more weakly
[5]; [9]
  binding result: binds more weakly
eZNF9-TAP (Homo sapiens) [2]; [9]
  binding result: binds more weakly

## GAUGUUGAUGUUGAUGUUGAUGUUGAUGUU [(GAUGUU)5]
[1]; label: biotin
  binding result: binds
pZNF9-His (Homo sapiens); label: biotin
  binding result: binds
[5]; label: biotin
  binding result: binds
eZNF9-TAP (Homo sapiens) [2]; label: biotin
  binding result: binds

## GAUUAAGAUUAAGAUUAAGAUUAAGAUUAA [(GAUUAA)5]
[1]; label: biotin
  binding result: no binding
pZNF9-His (Homo sapiens); label: biotin
  binding result: no binding
[5]; label: biotin
  binding result: no binding
eZNF9-TAP (Homo sapiens) [2]; label: biotin
  binding result: no binding

## GTGGTGGTGGTGGTGGTGGTGGTGGTGGTG [(GTGGTG)5 DNA]
[3]; 10-fold excess vs biotin (GAUGAA)5 RNA, strong, label: none (competitor) or biotin (direct pull-down), single-stranded DNA
  binding result: binds
[1]; data not shown, Gis2 preparation not specified, label: none (competitor) or biotin (direct pull-down), single-stranded DNA
  binding result: binds

## GTTGTTGTTGTTGTTGTTGTTGTTGTTGTT [(GTTGTT)5 DNA]
[3]; [6]
  binding result: binds more weakly

## GUGGUGGUGGUGGUGGUGGUGGUGGUGGUG [(GUGGUG)5]
[3]; [8]
  binding result: binds more weakly
[1]; [9]
  binding result: binds more weakly
pZNF9-His (Homo sapiens); [9]
  binding result: binds more weakly
[5]; [9]
  binding result: binds more weakly
eZNF9-TAP (Homo sapiens) [2]; [9]
  binding result: binds more weakly

## GUUGUUGUUGUUGUUGUUGUUGUUGUUGUU [(GUUGUU)5]
[1]; label: biotin
  binding result: binds
pZNF9-His (Homo sapiens); label: biotin
  binding result: binds
[5]; label: biotin
  binding result: binds
eZNF9-TAP (Homo sapiens) [2]; label: biotin
  binding result: binds

For some assays here: No signal at the amounts used counts as a negative. At least one verdict rests on a figure or table, not on a statement of the authors. For some assays here: Protein sequences can lack the tags named with them. For some assays here: At least one result comes from cells or an extract, where the contact may be indirect. For at least one entry, the source does not settle the construct or the ends of the probe. For some assays here: Weaker means in comparison with the reference protein, sequence or condition of that experiment.
